PubChem BioAssay AID1259308 | NCATS – 2017
Aim: 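Genes whose loss raises luciferase production in HEK293 cells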 (primary screen). Cells: human HEK293 embryonic kidney cells stably expressing firefly luciferase (HEK-CMV-Luc2-Hygro). Reagents: single siRNA against human genes, 0.8 pmol siRNA per well. Duration: 72 h. Detection: 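Reporter luminescence and viable-cell signal on separate replicate plates, given as percent of non-targeting control and median/MAD z-scores, plus per-cell luciferase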. Scale: total luciferase, z-score: higher = more reporter protein produced. Active means: 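Active when the median/MAD z-score for overall luciferase is greater than 3; a gene was taken forward for validation with new siRNAs if at least two of its three siRNAs passed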. Meaning of the calls: active = raised luciferase; inactive = no rise.
In all, the deposit lists about 59,000 reagents; this is a random part of them. About 1,510 of all reagents (2.6%) were called active. 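Calls use total luciferase alone and ignore viability, so some active siRNAs may act by altering cell number.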 Unmarked entries are inactive. Reagents against one gene are numbered here. Not all columns of the deposit are shown.

total luciferase, z-score, by target gene and reagent
GLYATL3: #1 -2.23; #2 -0.391; #3 -0.922
MTPAP: #1 3.3 (active); #2 0.261; #3 0.768
C4orf50: #1 0.31; #2 0.578; #3 1.03
ODF4: #1 0.818; #2 -1.23; #3 1.64
MTRFR: #1 -0.0758; #2 0.619; #3 0.0176
UBTD1: #1 -1.96; #2 -1.05; #3 0.191
WBP1: #1 0.0482; #2 -1.07; #3 -1.32
OR4X1: #1 -1.02; #2 -0.366; #3 0.0514
COL3A1: #1 0.613; #2 -1.17; #3 1.53
AMMECR1: #1 -0.613; #2 1.27; #3 0.734
PPARGC1A: #1 0.36; #2 0.19; #3 -0.502
DUX5: #1 0.337; #2 0.196; #3 0.71
IGF2BP2: #1 -1.16; #2 0.0444; #3 1.51
NFIA-AS1: #1 0.504; #2 4.06 (active); #3 0.329
MRGPRG: #1 1.07; #2 -1.47; #3 -1.25
MED12L: #1 1.23; #2 -0.077; #3 -0.496
RIMKLB: #1 2.37; #2 0.677; #3 0.619
STAT2: #1 -0.444; #2 1.3; #3 0.0116
CENPF: #1 0.581; #2 1.13; #3 0.288
GGA1: #1 0.0494; #2 -0.471; #3 -0.912
TMCC3: #1 0.278; #2 -1.68; #3 -0.381
MTFR2: #1 -0.543; #2 1.14; #3 1.55
PLOD1: #1 -0.725; #2 0.041; #3 0.719
OR56A3: #1 0.866; #2 -0.598; #3 1.61
BEX4: #1 -1.68; #2 0.322; #3 0.028

Copied from the list:
Entry of UBTD1 #2 in “total luciferase, z-score”: -1.05
Entry for NFIA-AS1 #3 under “total luciferase, z-score”: 0.329
OR4X1 #3, total luciferase, z-score: 0.0514
Under “total luciferase, z-score”, IGF2BP2 #3 is entered as 1.51
AMMECR1 #2, total luciferase, z-score = 1.27
